Measurements: the supplement of paper PMC10849652
Some of the results follow. Residues, ends and D or L forms follow the SMILES beside them. *: point of attachment. Cbz = O=C(OCc1ccccc1)*

The chains behind the UniProt entries cited, without tags or fusion partners. Where a name states a change or a piece, a line headed by the entry shows the natural chain unless it says otherwise.
UniProt Q58FG1, whole entry, looked up: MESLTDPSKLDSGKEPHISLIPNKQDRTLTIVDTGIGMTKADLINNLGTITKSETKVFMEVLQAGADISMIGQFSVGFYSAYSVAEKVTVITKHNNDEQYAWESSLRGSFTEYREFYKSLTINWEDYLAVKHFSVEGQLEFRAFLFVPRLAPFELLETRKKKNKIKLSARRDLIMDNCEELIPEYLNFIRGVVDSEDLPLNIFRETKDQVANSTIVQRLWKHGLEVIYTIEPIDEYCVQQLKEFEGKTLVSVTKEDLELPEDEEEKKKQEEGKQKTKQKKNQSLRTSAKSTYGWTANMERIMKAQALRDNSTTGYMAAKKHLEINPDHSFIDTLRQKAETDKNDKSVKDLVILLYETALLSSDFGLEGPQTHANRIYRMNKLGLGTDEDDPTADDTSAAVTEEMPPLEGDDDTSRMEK
UniProt Q6DN03, whole entry, looked up: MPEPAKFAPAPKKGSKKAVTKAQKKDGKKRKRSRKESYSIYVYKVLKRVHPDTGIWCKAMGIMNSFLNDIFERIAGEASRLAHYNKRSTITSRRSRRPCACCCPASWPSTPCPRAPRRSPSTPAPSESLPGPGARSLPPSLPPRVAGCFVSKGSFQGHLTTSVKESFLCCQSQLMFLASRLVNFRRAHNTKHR
UniProt O43719: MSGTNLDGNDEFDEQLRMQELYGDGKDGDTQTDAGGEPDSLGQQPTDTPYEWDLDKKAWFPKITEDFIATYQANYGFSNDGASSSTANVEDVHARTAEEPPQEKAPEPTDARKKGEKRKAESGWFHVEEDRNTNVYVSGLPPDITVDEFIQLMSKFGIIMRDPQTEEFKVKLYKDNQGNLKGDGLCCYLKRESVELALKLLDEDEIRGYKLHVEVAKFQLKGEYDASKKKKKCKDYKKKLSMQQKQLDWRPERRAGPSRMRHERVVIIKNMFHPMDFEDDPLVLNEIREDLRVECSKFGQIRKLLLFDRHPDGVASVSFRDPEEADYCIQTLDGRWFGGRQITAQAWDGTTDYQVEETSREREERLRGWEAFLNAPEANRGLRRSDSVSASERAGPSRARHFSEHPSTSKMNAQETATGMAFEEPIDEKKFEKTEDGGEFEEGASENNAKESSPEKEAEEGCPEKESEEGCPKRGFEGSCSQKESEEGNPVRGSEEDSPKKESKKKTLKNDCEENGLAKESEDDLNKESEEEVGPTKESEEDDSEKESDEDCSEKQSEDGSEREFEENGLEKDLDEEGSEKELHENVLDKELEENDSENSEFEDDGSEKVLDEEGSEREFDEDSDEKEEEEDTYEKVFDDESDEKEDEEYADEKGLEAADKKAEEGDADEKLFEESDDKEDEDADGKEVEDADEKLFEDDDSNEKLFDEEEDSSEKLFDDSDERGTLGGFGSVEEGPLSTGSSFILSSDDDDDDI
UniProt P31943: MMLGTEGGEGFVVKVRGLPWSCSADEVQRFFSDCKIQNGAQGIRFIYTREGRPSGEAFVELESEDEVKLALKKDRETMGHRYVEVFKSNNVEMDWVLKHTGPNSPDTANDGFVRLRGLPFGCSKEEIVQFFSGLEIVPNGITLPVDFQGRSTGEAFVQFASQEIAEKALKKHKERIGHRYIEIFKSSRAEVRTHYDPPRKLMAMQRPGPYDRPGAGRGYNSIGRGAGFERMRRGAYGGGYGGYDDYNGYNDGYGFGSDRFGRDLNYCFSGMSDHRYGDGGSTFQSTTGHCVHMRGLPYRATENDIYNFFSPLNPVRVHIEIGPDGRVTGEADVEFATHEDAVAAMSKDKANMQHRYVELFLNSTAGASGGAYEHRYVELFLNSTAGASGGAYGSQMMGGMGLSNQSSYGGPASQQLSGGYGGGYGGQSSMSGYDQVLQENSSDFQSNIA
UniProt Q9Y547: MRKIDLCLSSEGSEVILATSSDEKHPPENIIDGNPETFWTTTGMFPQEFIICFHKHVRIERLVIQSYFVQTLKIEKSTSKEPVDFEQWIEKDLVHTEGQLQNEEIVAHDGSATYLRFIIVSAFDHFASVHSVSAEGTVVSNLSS
UniProt P23327: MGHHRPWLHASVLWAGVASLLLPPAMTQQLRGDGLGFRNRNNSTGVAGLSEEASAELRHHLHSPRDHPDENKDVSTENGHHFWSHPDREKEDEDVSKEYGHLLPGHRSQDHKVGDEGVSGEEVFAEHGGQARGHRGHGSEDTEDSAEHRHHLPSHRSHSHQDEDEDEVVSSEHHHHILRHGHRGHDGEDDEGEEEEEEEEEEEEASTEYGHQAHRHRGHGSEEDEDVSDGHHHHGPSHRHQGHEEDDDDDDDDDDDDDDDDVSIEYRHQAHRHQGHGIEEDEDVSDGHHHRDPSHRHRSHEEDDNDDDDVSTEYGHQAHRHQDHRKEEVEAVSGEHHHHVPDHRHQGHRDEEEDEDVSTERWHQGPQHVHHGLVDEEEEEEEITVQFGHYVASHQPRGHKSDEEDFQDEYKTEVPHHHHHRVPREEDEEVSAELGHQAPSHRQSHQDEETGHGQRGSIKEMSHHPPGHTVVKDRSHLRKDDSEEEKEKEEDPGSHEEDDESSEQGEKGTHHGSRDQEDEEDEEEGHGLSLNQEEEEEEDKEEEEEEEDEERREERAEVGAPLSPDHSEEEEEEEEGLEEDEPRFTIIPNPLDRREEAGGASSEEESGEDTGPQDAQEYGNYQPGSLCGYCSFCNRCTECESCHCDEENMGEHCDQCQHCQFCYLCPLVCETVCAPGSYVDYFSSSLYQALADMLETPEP
UniProt Q9NX55: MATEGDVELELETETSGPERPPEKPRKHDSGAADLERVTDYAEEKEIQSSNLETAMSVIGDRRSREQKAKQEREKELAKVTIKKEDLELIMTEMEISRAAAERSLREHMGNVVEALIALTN
UniProt Q14527: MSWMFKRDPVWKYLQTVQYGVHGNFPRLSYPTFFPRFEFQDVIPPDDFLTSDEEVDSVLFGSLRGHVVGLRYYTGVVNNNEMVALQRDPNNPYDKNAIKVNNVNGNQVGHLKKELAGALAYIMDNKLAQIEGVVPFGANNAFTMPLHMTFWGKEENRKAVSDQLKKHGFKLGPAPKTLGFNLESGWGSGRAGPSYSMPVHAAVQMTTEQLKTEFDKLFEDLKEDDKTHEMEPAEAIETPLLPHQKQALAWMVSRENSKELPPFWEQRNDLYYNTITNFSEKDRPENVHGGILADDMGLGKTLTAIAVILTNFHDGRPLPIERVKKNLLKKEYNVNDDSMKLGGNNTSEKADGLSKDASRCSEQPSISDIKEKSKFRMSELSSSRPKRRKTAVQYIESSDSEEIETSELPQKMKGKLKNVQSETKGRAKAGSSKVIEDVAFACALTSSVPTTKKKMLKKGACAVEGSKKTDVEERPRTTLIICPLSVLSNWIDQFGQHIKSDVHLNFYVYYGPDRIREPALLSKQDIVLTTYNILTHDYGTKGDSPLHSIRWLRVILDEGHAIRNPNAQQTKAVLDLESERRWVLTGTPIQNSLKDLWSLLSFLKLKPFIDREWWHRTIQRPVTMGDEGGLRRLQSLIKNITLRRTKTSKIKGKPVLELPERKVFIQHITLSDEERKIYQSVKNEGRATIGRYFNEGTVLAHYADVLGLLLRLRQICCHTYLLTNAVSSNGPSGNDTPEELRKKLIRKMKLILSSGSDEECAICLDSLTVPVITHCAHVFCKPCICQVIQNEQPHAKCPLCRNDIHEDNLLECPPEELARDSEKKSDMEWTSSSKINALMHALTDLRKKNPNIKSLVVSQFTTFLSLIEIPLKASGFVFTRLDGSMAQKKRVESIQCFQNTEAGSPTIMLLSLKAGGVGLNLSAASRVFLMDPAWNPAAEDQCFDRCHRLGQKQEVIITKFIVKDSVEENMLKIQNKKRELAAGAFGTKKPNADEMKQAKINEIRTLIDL
UniProt P05114: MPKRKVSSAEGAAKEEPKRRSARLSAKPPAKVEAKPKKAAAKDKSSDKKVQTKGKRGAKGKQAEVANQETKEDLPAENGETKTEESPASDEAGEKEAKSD
UniProt P17482: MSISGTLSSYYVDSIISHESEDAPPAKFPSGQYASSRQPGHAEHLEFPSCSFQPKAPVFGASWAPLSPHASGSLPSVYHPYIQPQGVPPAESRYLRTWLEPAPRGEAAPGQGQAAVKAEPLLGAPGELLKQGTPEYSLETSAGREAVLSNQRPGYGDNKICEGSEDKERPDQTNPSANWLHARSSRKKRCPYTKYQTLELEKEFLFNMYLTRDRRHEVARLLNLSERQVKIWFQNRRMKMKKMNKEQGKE
UniProt P52597: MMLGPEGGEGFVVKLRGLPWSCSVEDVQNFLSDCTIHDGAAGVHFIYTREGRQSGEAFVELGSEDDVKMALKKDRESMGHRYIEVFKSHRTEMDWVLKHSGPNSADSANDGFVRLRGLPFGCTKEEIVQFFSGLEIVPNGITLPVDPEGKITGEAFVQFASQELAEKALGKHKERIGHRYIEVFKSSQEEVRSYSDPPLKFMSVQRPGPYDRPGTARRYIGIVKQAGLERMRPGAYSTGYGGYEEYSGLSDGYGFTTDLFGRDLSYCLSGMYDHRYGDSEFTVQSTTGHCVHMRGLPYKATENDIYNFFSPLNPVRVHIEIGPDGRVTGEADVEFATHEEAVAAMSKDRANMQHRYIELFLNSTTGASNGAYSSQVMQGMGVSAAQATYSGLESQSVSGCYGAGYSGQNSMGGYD
UniProt P09429: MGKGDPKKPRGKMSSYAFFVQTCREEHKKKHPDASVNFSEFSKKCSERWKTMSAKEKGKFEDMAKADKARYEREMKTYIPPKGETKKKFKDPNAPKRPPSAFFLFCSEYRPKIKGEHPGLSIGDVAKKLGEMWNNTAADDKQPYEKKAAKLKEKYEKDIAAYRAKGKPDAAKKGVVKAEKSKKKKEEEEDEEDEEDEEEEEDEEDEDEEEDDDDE
UniProt O15347: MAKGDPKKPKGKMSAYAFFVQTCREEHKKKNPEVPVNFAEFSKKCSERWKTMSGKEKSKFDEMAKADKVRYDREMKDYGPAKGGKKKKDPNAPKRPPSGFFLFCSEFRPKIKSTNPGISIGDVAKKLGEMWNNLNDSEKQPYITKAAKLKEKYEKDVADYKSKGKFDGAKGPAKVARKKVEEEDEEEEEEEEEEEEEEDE
UniProt P11142, whole entry, looked up: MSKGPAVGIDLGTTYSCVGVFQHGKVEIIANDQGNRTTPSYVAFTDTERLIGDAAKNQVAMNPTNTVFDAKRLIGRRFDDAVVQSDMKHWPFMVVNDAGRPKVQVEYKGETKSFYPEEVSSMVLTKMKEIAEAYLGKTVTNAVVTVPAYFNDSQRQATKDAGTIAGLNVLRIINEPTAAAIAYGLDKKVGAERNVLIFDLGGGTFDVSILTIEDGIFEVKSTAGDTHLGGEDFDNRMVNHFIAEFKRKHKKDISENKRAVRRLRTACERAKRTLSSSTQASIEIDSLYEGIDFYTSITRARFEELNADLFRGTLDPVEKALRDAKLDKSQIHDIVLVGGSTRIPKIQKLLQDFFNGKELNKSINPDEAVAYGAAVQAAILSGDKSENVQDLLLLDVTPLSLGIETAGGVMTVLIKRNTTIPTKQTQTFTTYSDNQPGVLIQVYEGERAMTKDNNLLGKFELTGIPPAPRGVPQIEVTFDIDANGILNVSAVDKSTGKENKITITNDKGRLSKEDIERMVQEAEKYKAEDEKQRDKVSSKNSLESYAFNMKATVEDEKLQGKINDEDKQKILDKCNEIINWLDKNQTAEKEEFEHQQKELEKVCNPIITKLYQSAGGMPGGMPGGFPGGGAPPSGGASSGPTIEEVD
UniProt P49773: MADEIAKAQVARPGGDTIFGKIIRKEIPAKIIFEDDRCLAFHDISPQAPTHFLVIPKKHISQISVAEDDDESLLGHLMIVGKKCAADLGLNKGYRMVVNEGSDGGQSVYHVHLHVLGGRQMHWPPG

Columns and labels:
Test in all cases: log2 fold change, soluble protein after heating vs DMSO (PISA); higher = thermal stabilisation; K562 cells, 10 uM, 30 min; active = over 0.2 and 3.5 SD of the protein, either way, in both replicates (recomputed)
erlotinib = compound: C#Cc1cccc(Nc2ncnc3cc(OCCOC)c(OCCOC)cc23)c1 [erlotinib]
Procedure, shortened: (§1)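 Quantification of soluble protein used TMTpro 16plex LC-MS/MS, with channel sums equalised. Samples were the supernatant after 21,000xg for 90 min of pooled aliquots from K562 cells (2×10^6 cells/mL) treated with 10 μM compound for 30 min, heated for 3 min over 48°C-58°C, and extracted in PBS with 0.5% NP-40 at 4°C. Values, from duplicates, describe thermal stability against control samples on a log2 fold-change scale.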

[1] = compound: C/C(=N\NC(=O)C1=CC(=CC=C1)S(=O)(=O)N2CCOCC2)/C3=C(C=CC(=C3)Cl)O
Procedure, shortened: as §1

[2] = compound: C1=CC(=C(C=C1Cl)C2=NC3=NC=CN=C3C(=N2)NC4=CC=NC=C4)F
Procedure, shortened: as §1

[3] = compound: C1=CC(=CC=C1C2=NC3=C(N2)C=C(C=C3)C(=O)N)OC4=CC=C(C=C4)Cl
Procedure, shortened: as §1

[4] = compound: C1=CC2=C(C=CC(=C2)/C=C\3/C(=O)NC(=NCC4=CC=CS4)S3)N=C1
Procedure, shortened: as §1

[5] = compound: C1=CC2=NC=CN=C2C=C1/C=C/3\C(=O)NC(=O)S3
Procedure, shortened: as §1

[6] = compound: C1=CC=C(C=C1)C2=NC(=C(N2)C3=CC=NC=C3)C4=CC(=C(C=C4)Cl)O
Procedure, shortened: as §1

[7] = compound: C1=CC=C2C(=C1)C3=NNC4=CC=CC(=C43)C2=O
Procedure, shortened: as §1

[8] = compound: C1CCN(C1)C(=O)NC2=CC=CC(=C2)NC3=NC=C(C(=N3)NCCC4=CN=CN4)Br
Procedure, shortened: as §1

[9] = compound: C1CN(CCC1(CC2=CC=C(C=C2)Cl)N)C3=NC=NC4=C3C=CN4
Procedure, shortened: as §1

IRAK-1-4 Inhibitor I = compound: C1COCCN1CCN2C3=CC=CC=C3N=C2NC(=O)C4=CC(=CC=C4)[N+](=O)[O-] [IRAK-1-4 Inhibitor I]
Procedure, shortened: as §1

ibrutinib = compound: C=CC(=O)N1CCC[C@@H](n2nc(-c3ccc(Oc4ccccc4)cc3)c3c(N)ncnc32)C1 [ibrutinib]
Procedure, shortened: as §1

[10] = compound: CC(=O)c1cnc2ccc(-c3cc(Cl)c(O)c(Cl)c3)nc2c1N[C@H]1CC[C@H](CN(C)C)CC1
Procedure, shortened: as §1

ralimetinib = compound: CC(C)(C)Cn1c(N)nc2ccc(-c3[nH]c(C(C)(C)C)nc3-c3ccc(F)cc3)nc21 [ralimetinib]
Procedure, shortened: as §1

[11] = compound: CC(C)(O)CC(=O)NCCn1ccc2ncnc(Nc3ccc(Oc4cccc(C(F)(F)F)c4)c(Cl)c3)c21
Procedure, shortened: as §1

[12] = compound: CC(C)C1=C2N=C(C=C(N2N=C1)NCC3=CC=CC=C3)NCCCCCCN
Procedure, shortened: as §1

[13] = compound: CC(C)C[C@@H](C=O)NC(=O)[C@H](CC(C)C)NC(=O)[C@H](CC(C)C)NC(=O)OCc1ccccc1
Procedure, shortened: as §1

pinometostat = compound: CC(C)N(C[C@H]1O[C@@H](n2cnc3c(N)ncnc32)[C@H](O)[C@@H]1O)[C@H]1C[C@@H](CCc2nc3cc(C(C)(C)C)ccc3[nH]2)C1 [pinometostat]
Procedure, shortened: as §1

[14] = compound: CC1=C(C(CC(=O)N1)C2=CC=C(C=C2)C(F)(F)F)C(=O)NC3=C(C=C4C(=C3)C=NN4)F
Procedure, shortened: as §1

[15] = compound: CC1=C(C2=C(C=C1)C(=O)C3=CC=CC=C3N2CCCN)C
Procedure, shortened: as §1

Measured: log2 fold change

HSP90AA4P (UniProt Q58FG1)
inactive: erlotinib 0.224 | [1] -0.117 | [2] -0.053 | [3] 0.028 | [4] 0.23 | [5] 0.104 | [6] -0.12 | [7] -0.097 | [8] 0.166 | [9] 0.017 | IRAK-1-4 Inhibitor I -0.037 | ibrutinib -0.036 | [10] -0.055 | ralimetinib -0.026 | [11] -0.009 | [12] -0.036 | [13] 0.103 | pinometostat 0.033 | [14] 0 | [15] -0.025

HIST2H2BC (UniProt Q6DN03)
inactive: erlotinib -0.017 | [1] -0.175 | [2] -0.456 | [3] 0.129 | [4] 0.06 | [5] 0.049 | [6] -0.011 | [7] -0.112 | [8] 0.194 | [9] -0.519 | IRAK-1-4 Inhibitor I -0.033 | ibrutinib 0.19 | [10] -0.04 | ralimetinib 0.166 | [11] 0.006 | [12] -0.093 | [13] 0.17 | pinometostat 0.373 | [14] -0.07 | [15] 0.671

HTATSF1 (UniProt O43719)
inactive: erlotinib 0.07 | [1] 0.109 | [2] 0.016 | [3] -0.042 | [4] 0.144 | [5] 0.043 | [6] -0.043 | [7] -0.003 | [8] -0.06 | [9] -0.037 | IRAK-1-4 Inhibitor I -0.089 | ibrutinib -0.088 | [10] -0.042 | ralimetinib -0.035 | [11] -0.068 | [12] -0.298 | [13] 0.04 | pinometostat -0.005 | [14] 0.025 | [15] -0.19

HNRNPH1 (UniProt P31943)
active: [12] -0.427
inactive: erlotinib 0.043 | [1] 0.102 | [2] -0.04 | [3] 0.004 | [4] -0.035 | [5] -0.012 | [6] -0.016 | [7] 0.007 | [8] -0.1 | [9] -0.023 | IRAK-1-4 Inhibitor I -0.032 | ibrutinib 0.048 | [10] -0.176 | ralimetinib -0.018 | [11] 0 | [13] 0.131 | pinometostat 0.031 | [15] -0.045

HSPB11 (UniProt Q9Y547)
inactive: erlotinib -0.024 | [1] 0.014 | [2] 0.049 | [3] 0.073 | [4] 0.075 | [5] 0.036 | [6] 0.013 | [7] 0.079 | [8] -0.058 | [9] 0.03 | IRAK-1-4 Inhibitor I -0.017 | ibrutinib -0.028 | [10] -0.07 | ralimetinib 0.085 | [11] -0.066 | [12] -0.072 | [13] -0.065 | pinometostat -0.027 | [14] -0.058 | [15] -0.029

HRC (UniProt P23327)
inactive: erlotinib 0.012 | [1] -0.056 | [2] 0.042 | [3] -0.018 | [4] 0.005 | [5] 0.023 | [6] -0.021 | [7] -0.087 | [8] 0.041 | [9] 0.045 | IRAK-1-4 Inhibitor I 0.002 | ibrutinib 0.003 | [10] 0.041 | ralimetinib -0.039 | [11] 0.132 | [12] 0.074 | [13] 0.011 | pinometostat 0.019 | [15] -0.033

HYPK (UniProt Q9NX55)
inactive: erlotinib -0.029 | [1] 0.013 | [2] 0.049 | [3] -0.02 | [4] 0.056 | [5] 0.001 | [6] -0.014 | [7] -0.006 | [8] 0.011 | [9] -0.005 | IRAK-1-4 Inhibitor I 0.006 | ibrutinib -0.046 | [10] -0.04 | ralimetinib -0.024 | [11] 0.077 | [12] 0.076 | [13] 0.015 | pinometostat -0.067 | [14] 0.023 | [15] 0.044

HLTF (UniProt Q14527)
inactive: erlotinib -0.005 | [1] 0.018 | [2] 0.068 | [3] 0.039 | [4] 0.034 | [5] -0.067 | [6] -0.009 | [7] 0.044 | [8] -0.016 | [9] -0.011 | IRAK-1-4 Inhibitor I -0.026 | ibrutinib -0.028 | [10] -0.134 | ralimetinib -0.016 | [11] -0.022 | [13] 0.109 | pinometostat -0.024 | [15] 0.176
active: [12] 0.332

HMGN1 (UniProt P05114)
inactive: erlotinib -0.069 | [1] -0.114 | [2] -0.011 | [3] 0.066 | [4] -0.114 | [5] 0.045 | [6] -0.062 | [7] -0.059 | [8] 0.029 | [9] -0.028 | IRAK-1-4 Inhibitor I -0.006 | ibrutinib 0.049 | [10] 0.064 | ralimetinib 0.032 | [11] 0.166 | [12] 0.148 | [13] 0.042 | pinometostat -0.022
active: [15] 0.294

HOXB9 (UniProt P17482)
inactive: erlotinib 0.181 | [1] -0.163 | [2] -0.002 | [3] -0.039 | [4] 0.128 | [5] 0.013 | [6] -0.01 | [7] 0.021 | [8] 0.036 | [9] -0.035 | IRAK-1-4 Inhibitor I -0.013 | ibrutinib -0.015 | [10] -0.016 | ralimetinib 0.195 | [11] -0.166 | [12] -0.152 | [13] 0.024 | pinometostat 0.074 | [14] -0.017 | [15] -0.24

HNRNPF (UniProt P52597)
active: [12] -0.279
inactive: erlotinib 0.02 | [1] 0.126 | [2] -0.036 | [3] -0.034 | [4] -0.098 | [5] 0.017 | [6] 0.079 | [7] 0.003 | [8] -0.044 | [9] -0.044 | IRAK-1-4 Inhibitor I -0.143 | ibrutinib -0.023 | [10] -0.1 | ralimetinib 0.098 | [11] -0.086 | [13] 0.069 | pinometostat 0.018 | [15] -0.087

HMGB1 (UniProt P09429)
inactive: erlotinib 0.006 | [1] -0.044 | [2] 0.074 | [3] 0.054 | [4] -0.209 | [5] -0.011 | [6] 0.052 | [7] 0.116 | [8] -0.024 | [9] -0.007 | IRAK-1-4 Inhibitor I 0.111 | ibrutinib -0.008 | [10] 0.019 | ralimetinib 0.129 | [11] 0.064 | [12] 0.125 | [13] 0.1 | pinometostat -0.063 | [14] 0.03 | [15] 0.119

HMGB3 (UniProt O15347)
inactive: erlotinib -0.037 | [1] -0.002 | [2] 0.047 | [3] 0.011 | [5] -0.042 | [6] 0.095 | [7] -0.006 | [8] -0.025 | [9] 0.023 | IRAK-1-4 Inhibitor I 0.071 | ibrutinib 0.038 | [10] 0.083 | ralimetinib 0.163 | [11] -0.007 | [12] 0.068 | [13] 0.001 | pinometostat -0.019 | [15] 0.016
active: [4] -0.267

HSPA8 (UniProt P11142)
inactive: erlotinib -0.016 | [1] -0.031 | [2] 0.01 | [3] -0.014 | [4] 0 | [5] 0 | [6] -0.003 | [7] -0.088 | [8] 0.009 | [9] 0.017 | IRAK-1-4 Inhibitor I 0.032 | ibrutinib -0.015 | [10] 0.014 | ralimetinib -0.004 | [11] 0.029 | [12] 0.037 | [13] -0.013 | pinometostat -0.023 | [15] -0.016

HMGCR isoform 3 (UniProt P04035)
active: [13] 0.383
inactive: erlotinib -0.089 | [1] 0.025 | [2] -0.001 | [3] 0.032 | [4] -0.038 | [5] 0.101 | [6] -0.033 | [7] -0.137 | [8] -0.081 | [9] 0 | IRAK-1-4 Inhibitor I 0.037 | ibrutinib -0.001 | [10] 0.022 | ralimetinib -0.005 | [11] -0.023 | [12] 0.029 | pinometostat 0.014 | [15] -0.044

HINT1 (UniProt P49773)
inactive: erlotinib 0.049 | [1] 0.024 | [2] 0.186 | [3] -0.055 | [4] 0.02 | [5] 0.07 | [6] 0.083 | [7] 0.064 | [8] 0.008 | [9] -0.033 | IRAK-1-4 Inhibitor I 0.022 | ibrutinib 0.041 | [10] 0.02 | ralimetinib -0.074 | [11] -0.109 | [12] 0.045 | [13] -0.002 | pinometostat -0.055 | [14] 0.057 | [15] 0.159
